Measured values: publication PMC10770055
No constants are given. Whether binding was seen depends on the method and setting. In cells and extracts the contact can be indirect. Some entries that bind do so weakly or less than the wild type.

Target: Y-box binding protein 1 (human (endogenous in TNBC cells)) (UniProt P67809)
Assay: co-IP; endogenous co-IP from TNBC cell lysate (IP lysis buffer); IP with mouse anti-YBX1 at 4 °C overnight, mouse IgG as control, protein A/G beads, 6 washes; blot with rabbit anti-YBX1 and rabbit anti-RAF1

- binding: binds
Substance: RAF1 (from UniProt P04049 1-648)
